Measured values: PubChem BioAssay AID485314 (National Center for Advancing Translational Sciences (NCATS), 2010)
About 4,500 (1.3%) of roughly 340,000 compounds were called active. This list was built around the results that the source calls inconclusive (neither active nor inactive); the mix of calls is not that of the screen. Calls follow the shape of the dose curve; as a rule, active = well fitted inhibition curve with a large enough effect; inconclusive = small, poorly fitted or top-dose-only effect, or another doubt; inactive = no such curve, though single readings can be large or run the other way. Where the call is inconclusive, the potency comes from a doubtful curve fit.

molecular target: DNA polymerase beta (Homo sapiens) (UniProt P06746); assay: qHTS Assay for Inhibitors of DNA Polymerase Beta; conditions: Pol beta primer extension/strand displacement, fluorescence kinetic; activity change, negative = inhibition: at 114 µM (top of the series)
Method in brief: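 Homogeneous kinetic assay of primer extension and strand displacement by 10 nM Pol beta, preincubated 15 min at room temperature with compound before 50 nM substrate (final) was added. Read at 0 and 10 min; four-parameter Hill fit.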
% is scaled to controls: 0 for no effect and ±100 for the full control effect; potency is read from the fitted curve at half-maximal effect.

Potency, active:
CCOC(=O)Cc1cc(=O)n2[nH]c(-c3ccccc3)c(-c3ccccc3)c2n1 14.1 µM, O=Cc1ccc2oc3nc4n(c(=O)c3c(=O)c2c1)CCCS4 8.91 µM, Oc1ccccc1Oc1ncc(Br)c(Cl)n1 22.4 µM, Cc1ccc(-n2c(O)c(/C=N/c3ncn[nH]3)c3ccccc3c2=O)cc1 12.6 µM, O=C(CC1N=C2c3ccccc3N=C(SCc3ccccc3Cl)N2C1=O)NCc1ccco1 (centres undefined) 12.6 µM, Cc1[nH]c2ccccc2c1N=Nc1ccccc1C(=O)O 31.6 µM

Potency, inconclusive:
CCOc1ccccc1OC(=O)c1cc2ccccc2oc1=O 63.1 µM [inhibitor, partial curve, poor fit], Cc1[nH]c2ccccc2c1SCc1ccccc1 1.26 µM [inhibitor, full curve, poor fit], CNC(=O)NC(=S)NC(=O)c1cccc(Cl)c1 11.2 µM [inhibitor, partial curve], O=c1c(-c2ccco2)[n+]([O-])c2ccccc2n1OCc1ccccc1 100 µM [inhibitor, single point], Cc1cc(C)cc(NC(=O)Cn2c(=O)oc3cc(S(=O)(=O)N4CCCC4)ccc32)c1 56.2 µM [inhibitor, partial curve], CCCC12CN3CC(CCC)(CN(C1)C3c1c[nH]c3ccccc13)C2=O (centres undefined) 100 µM [inhibitor, single point], Cc1ccc2nc(CCc3nc4ccc(C)cc4[nH]3)[nH]c2c1 0.316 µM [inhibitor, full curve, poor fit], Cc1ccc(CNC(=O)c2ccc3c(c2)N(Cc2ccccc2F)C(=O)c2ccccc2S3(=O)=O)cc1 0.141 µM [inhibitor, full curve, poor fit], CC1CC(C(F)F)n2nc(C(=O)O)cc2N1 (centres undefined) 0.251 µM [inhibitor, full curve, poor fit], Cc1c(C(=O)NCc2ccc(N(C)C)cc2)oc2c1-c1nn(Cc3cccc(Cl)c3)cc1CC2 25.1 µM [inhibitor, single point], CCc1ccc(OCC(=O)N/N=C\c2ccco2)c([N+](=O)[O-])c1 3.98 µM [inhibitor, single point], CC(C)N1CCC2(CC1)C(C#N)=C(N)NC(S)=C2C#N 39.8 µM [inhibitor, single point], Cc1ccc(S(=O)(=O)/N=C2\C=C(Nc3cccc(C(=O)O)c3)C(=O)c3ccccc32)c(C)c1 63.1 µM [inhibitor, single point], CCn1c(SC(C)C(=O)O)nnc1-c1cccnc1 (centres undefined) 0.562 µM [inhibitor, full curve], O=C(CSc1nc2ccccc2[nH]1)c1ccco1 89.1 µM [inhibitor, single point], O=C(O)CCc1nc2ccccc2n(CCc2ccccc2)c1=O 28.2 µM [inhibitor, full curve, poor fit], c1ccc2c(c1)oc1c(NCc3ccc4c(c3)OCO4)ncnc12 35.5 µM [inhibitor, partial curve], COc1cc(C(=S)N2CCOCC2)ccc1OC(=O)/C=C/c1ccco1 70.8 µM [inhibitor, single point], COc1ccc(/C=N/NC(=O)c2ccc(Br)cc2)cc1Cn1cc(Cl)cn1 11.2 µM [inhibitor, full curve], COC(=O)c1ccc(NC(=O)c2c(NCc3ccc(C)o3)sc3c2CCCC3)cc1 89.1 µM [inhibitor, single point], O=C1CC(c2cccs2)c2cc3c(cc2N1)OCCO3 (centres undefined) 3.55 µM [inhibitor, partial curve], Cc1nn(-c2ccccc2)c(C)c1/C=N/NC(=O)c1cc(-c2cccs2)[nH]n1 14.1 µM [inhibitor, full curve], Cc1ccc2nc(N3C(=O)C(O)=C(C(=O)c4ccco4)C3c3ccc(C)o3)sc2c1 (centres undefined) 63.1 µM [inhibitor, single point], Cc1cc(=O)oc2cc(OCC(O)CN3CCc4ccccc4C3)ccc12 (centres undefined) 6.31 µM [inhibitor, full curve, poor fit], CCOC(=O)c1cccc(NC(=O)c2cc(CN3CCCC3)on2)c1 89.1 µM [inhibitor, single point], COc1ccccc1OCC(=O)Nc1cccc(C(=O)N2CCOCC2)c1 100 µM [inhibitor, single point], COc1ccc(CCNC(=O)C(=O)NCC2OCCN2S(=O)(=O)c2ccc(Br)cc2)cc1OC (centres undefined) 39.8 µM [inhibitor, single point], Cc1ccc(NC(=O)NNC(=O)c2cc3ccccc3cc2O)cc1C 63.1 µM [inhibitor, single point], CCOC(=O)c1c(NC(=O)CN2CCN(C)CC2)sc(C(=O)Nc2ccccc2)c1C 0.126 µM [inhibitor, full curve, poor fit], O=C(Nc1nc(-c2ccccc2)c(-c2ccccc2)o1)c1ccc(F)cc1 39.8 µM [inhibitor, single point], CC(C)(C)c1ccc(C(=O)c2c[nH]c(C(=O)NCCCn3ccnc3)c2)cc1 39.8 µM [inhibitor, single point], Cc1cccn2c(=O)c3cc(C(=O)NC(C)c4ccccc4)c(=N)n(CCCn4ccnc4)c3nc12 (centres undefined) 0.708 µM [inhibitor, full curve, poor fit], COc1ccc2oc(=O)c(C(=O)NCc3ccc(F)cc3)cc2c1 100 µM [inhibitor, single point], O=C(Cc1cccs1)Nc1nnc(-c2ccncc2)s1 0.794 µM [inhibitor, single point], CCCCCn1c(CN2CCN(c3cccc(Cl)c3)CC2)nc2c1c(=O)[nH]c(=O)n2C 63.1 µM [inhibitor, partial curve, poor fit], CCN(CC(=O)Nc1ccc(NC(C)=O)cc1)CC(=O)Nc1ccc(Cl)c(Cl)c1 20 µM [inhibitor, full curve], COc1cc(NC(=O)c2c(F)cccc2F)c(Cl)cc1Cl 28.2 µM [inhibitor, single point], CCOC(=O)c1cn(CC(=O)Nc2cccc(Cl)c2)nn1 89.1 µM [inhibitor, single point], C/C(N)=C(/C#N)C(=O)CSc1nc2ccccc2c(=O)n1-c1ccc(C)cc1 15.8 µM [inhibitor, full curve], Nn1c(SCC(=O)Nc2ccccc2F)nc2ccccc2c1=O 89.1 µM [inhibitor, single point], CCCc1cc(=O)[nH]c(SCC(=O)Nc2nc(-c3ccccc3)cs2)n1 89.1 µM [inhibitor, single point], Cc1nnc(SCC(=O)Nc2cc(-c3cc(C)c(C)cc3C)nn2-c2ccccc2)s1 89.1 µM [inhibitor, single point]

Activity change, negative = inhibition, inactive:
COCc1cc(CNC(=O)C2CCC(=O)N(Cc3cccc(OC)c3)C2)[nH]n1 (centres undefined) 2.55%, CCN(C(=O)C1CCN(S(=O)(=O)c2ccc3c(c2)CCCN3C(=O)C2CCC2)CC1)c1cccc(C)c1 -20.5%, CCCCNc1nc(Oc2ccc(=O)n(C)n2)nc(N(C)C)n1 3.84%, CC1CN(c2ccccc2)NC1=O (centres undefined) 1.02%, CCOc1cc(CNCCSc2nnnn2-c2ccccc2)cc(Cl)c1OC 1.3%, CC(CNC(=O)C1CCN(Cc2cc3ccccc3n2Cc2ccccc2)CC1)c1ccccc1 (centres undefined) 6.15%, CCN(CC)S(=O)(=O)c1ccc(C(=O)Nc2nnc(NC(=S)Nc3ccccc3)s2)cc1 7.28%, CC(C)CCn1c(Br)nc2c1c(=O)n(CC(N)=O)c(=O)n2C 15.8%, CCn1c2ccccc2c2cc(NC(=O)CSc3nnc(-c4ccc(OC)c(OC)c4)n3N)ccc21 0.342%, Cc1cc(=O)oc2c(C)c(OC(C)C(=O)NC(Cc3c[nH]c4ccc(O)cc34)C(=O)O)ccc12 (centres undefined) -16.3%, Nc1nonc1-n1nnc(C(=O)N/N=C/c2ccccc2Cl)c1CN1CCOCC1 -18.9%, COc1cccc(-c2nc(-c3ccc(-c4ccccc4)nc3OC)no2)c1 3.59%, COc1ccc(NC(=O)/C(C#N)=C/c2ccc(-c3ccccc3C(=O)O)o2)cc1 23.2%, O=C(O)C1C2C=CC(C2)C1C(=O)NCc1ccccc1F (centres undefined) 0.259%, O=C(Nc1ccc(F)cc1)[C@H](Cc1ccccc1)N1Cc2ccccc2C1=O -4.17%, COc1ccc(Cl)cc1NC(=O)Cn1ccn(Cc2ccc(C)cc2)c(=O)c1=O -12.3%, Cc1cccc(C)c1NC(=O)CN1C(=O)S/C(=C\c2cccn2-c2cccc(C(=O)O)c2)C1=O -109%, COc1ccc2cc(C(=O)NCc3ccco3)c(=Nc3ccc(C(=O)O)cc3)oc2c1 20%, O=C(CNS(=O)(=O)c1cccc2nonc12)NCc1ccc(F)cc1 0.832%

Activity change, negative = inhibition, inconclusive:
Cc1ccc2c(=O)cc(C(=O)NCCc3ccc(S(N)(=O)=O)cc3)oc2c1 -106% [inhibitor], O=C(Nc1cccc(-n2cnnn2)c1)c1ccoc1COc1ccc(Cl)cc1 -39.1% [inhibitor]
